{"source": "the supplement of paper PMC8728848", "binders": {"B1": {"name": "Protectin (Homo sapiens), P13987 (protein)", "chain": "MGIQGGSVLFGLLLVLAVFCHSGHSLQCYNCPNPTADCKTAVNCSSDFDACLITKAGLQVYNKCWKFEHCNFNDVTTRLRENELTYYCCKKDLCNFNEQLENGGTSLSEKTVLLLVTPFLAAAWSLHP"}}, "test_in_all_cases": "glycan array binding signal (z-score within array); higher = stronger binding", "settings_in_all_cases": "glycan notation: IUPAC condensed, linker removed", "key": {"[1]": {"biological_target": "Gal(b1-4)GlcNAc(b1-2)Man(a1-3)[Gal(b1-4)GlcNAc(b1-2)Man(a1-6)]Man(b1-4)GlcNAc(b1-4)GlcNAc", "method_in_brief": "(§1)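 Glycan array binding is given as a within-array Z-score, which can be read as non-binding when negative. The arrays, 3228 of them, came from the Consortium for Functional Glycomics database and were retained only where the protein sequence was available. Z-scores were averaged across arrays of the same protein sequence at different concentrations or buffers and across linkers.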"}, "[2]": {"biological_target": "Gal(b1-4)GlcNAc(b1-2)Man(a1-3)[Gal(b1-4)GlcNAc(b1-2)Man(a1-6)]Man(b1-4)GlcNAc(b1-4)[Fuc(a1-6)]GlcNAc", "method_in_brief": "as §1"}, "[3]": {"biological_target": "Gal(b1-4)GlcNAc(b1-2)Man(a1-3)[Gal(b1-4)GlcNAc(b1-2)][GlcNAc(b1-4)]Man(b1-4)GlcNAc(b1-4)GlcNAc", "method_in_brief": "as §1"}, "[4]": {"biological_target": "Gal(b1-4)GlcNAc(b1-2)Man(a1-3)[GlcNAc(b1-2)Man(a1-6)]Man(b1-4)GlcNAc(b1-4)GlcNAc", "method_in_brief": "as §1"}, "[5]": {"biological_target": "Gal(b1-4)GlcNAc(b1-2)Man(a1-3)[Man(a1-6)]Man(b1-4)GlcNAc(b1-4)GlcNAc", "method_in_brief": "as §1"}, "[6]": {"biological_target": "Gal(b1-4)GlcNAc(b1-2)Man(a1-6)Man(b1-4)GlcNAc(b1-4)GlcNAc", "method_in_brief": "as §1"}, "[7]": {"biological_target": "Gal(b1-4)GlcNAc(b1-2)Man(a1-6)[GlcNAc(b1-2)Man(a1-3)]Man(b1-4)GlcNAc(b1-4)GlcNAc", "method_in_brief": "as §1"}, "[8]": {"biological_target": "Gal(b1-4)GlcNAc(b1-2)Man(a1-6)[Man(a1-3)]Man(b1-4)GlcNAc(b1-4)GlcNAc", "method_in_brief": "as §1"}, "[9]": {"biological_target": "Gal(b1-4)GlcNAc(b1-2)[Gal(b1-4)GlcNAc(b1-4)]Man(a1-3)[Gal(b1-4)GlcNAc(b1-2)Man(a1-6)]Man(b1-4)GlcNAc(b1-4)GlcNAc", "method_in_brief": "as §1"}, "[10]": {"biological_target": "Gal(b1-4)GlcNAc(b1-2)[Gal(b1-4)GlcNAc(b1-4)]Man(a1-3)[Gal(b1-4)GlcNAc(b1-2)[Gal(b1-4)GlcNAc(b1-6)]Man(a1-6)]Man(b1-4)GlcNAc(b1-4)GlcNAc", "method_in_brief": "as §1"}, "[11]": {"biological_target": "Gal(b1-4)GlcNAc(b1-2)[Gal(b1-4)GlcNAc(b1-4)]Man(a1-3)[GlcNAc(b1-4)][Gal(b1-4)GlcNAc(b1-2)Man(a1-6)]Man(b1-4)GlcNAc(b1-4)GlcNAc", "method_in_brief": "as §1"}, "[12]": {"biological_target": "Gal(b1-4)GlcNAc(b1-2)[Gal(b1-4)GlcNAc(b1-4)]Man(a1-3)[GlcNAc(b1-4)][Gal(b1-4)GlcNAc(b1-2)[Gal(b1-4)GlcNAc(b1-6)]Man(a1-6)]Man(b1-4)GlcNAc(b1-4)GlcNAc", "method_in_brief": "as §1"}, "[13]": {"biological_target": "Gal(b1-4)GlcNAc(b1-2)[Gal(b1-4)GlcNAc(b1-6)]Man(a1-6)[Gal(b1-4)GlcNAc(b1-2)Man(a1-3)]Man(b1-4)GlcNAc(b1-4)GlcNAc", "method_in_brief": "as §1"}, "[14]": {"biological_target": "Gal(b1-4)GlcNAc(b1-2)[Gal(b1-4)GlcNAc(b1-6)]Man(a1-6)[GlcNAc(b1-4)][Gal(b1-4)GlcNAc(b1-2)Man(a1-3)]Man(b1-4)GlcNAc(b1-4)GlcNAc", "method_in_brief": "as §1"}, "[15]": {"biological_target": "Gal(b1-4)GlcNAc(b1-3)Gal(b1-3)GlcNAc", "method_in_brief": "as §1"}, "[16]": {"biological_target": "Gal(b1-4)GlcNAc(b1-3)Gal(b1-4)Glc", "method_in_brief": "as §1"}, "[17]": {"biological_target": "Gal(b1-4)GlcNAc(b1-3)Gal(b1-4)GlcNAc", "method_in_brief": "as §1"}, "[18]": {"biological_target": "Gal(b1-4)GlcNAc(b1-3)Gal(b1-4)GlcNAc(b1-3)Gal(b1-4)GlcNAc", "method_in_brief": "as §1"}, "[19]": {"biological_target": "Gal(b1-4)GlcNAc(b1-3)Gal(b1-4)[Fuc(a1-3)GlcNAc(b1-6)]Gal(b1-4)Glc", "method_in_brief": "as §1"}, "[20]": {"biological_target": "Gal(b1-4)GlcNAc(b1-3)Gal(b1-4)[Fuc(a1-3)]GlcNAc(b1-3)Gal(b1-4)[Fuc(a1-3)]GlcNAc", "method_in_brief": "as §1"}, "[21]": {"biological_target": "Gal(b1-4)GlcNAc(b1-3)GalNAc", "method_in_brief": "as §1"}, "[22]": {"biological_target": "Gal(b1-4)GlcNAc(b1-3)[Gal(b1-4)GlcNAc(b1-6)]Gal(b1-4)GlcNAc", "method_in_brief": "as §1"}, "[23]": {"biological_target": "Gal(b1-4)GlcNAc(b1-3)[Gal(b1-4)GlcNAc(b1-6)]GalNAc", "method_in_brief": "as §1"}, "[24]": {"biological_target": "Gal(b1-4)GlcNAc(b1-3)[GlcNAc(b1-6)]Gal(b1-4)GlcNAc", "method_in_brief": "as §1"}, "[25]": {"biological_target": "Gal(b1-4)GlcNAc(b1-6)Gal(b1-4)GlcNAc", "method_in_brief": "as §1"}, "[26]": {"biological_target": "Gal(b1-4)GlcNAc(b1-6)GalNAc", "method_in_brief": "as §1"}, "[27]": {"biological_target": "Gal(b1-4)GlcNAc(b1-6)[Gal(b1-3)]GalNAc", "method_in_brief": "as §1"}, "[28]": {"biological_target": "Gal(b1-6)Gal", "method_in_brief": "as §1"}, "[29]": {"biological_target": "Gal3S(b1-3)GalNAc", "method_in_brief": "as §1"}, "[30]": {"biological_target": "Gal3S(b1-3)GlcNAc", "method_in_brief": "as §1"}, "[31]": {"biological_target": "Gal3S(b1-3)[Fuc(a1-4)]GlcNAc", "method_in_brief": "as §1"}, "[32]": {"biological_target": "Gal3S(b1-4)Glc", "method_in_brief": "as §1"}, "[33]": {"biological_target": "Gal3S(b1-4)Glc6S", "method_in_brief": "as §1"}, "[34]": {"biological_target": "Gal3S(b1-4)GlcNAc", "method_in_brief": "as §1"}, "[35]": {"biological_target": "Gal3S(b1-4)GlcNAc6S", "method_in_brief": "as §1"}, "[36]": {"biological_target": "Gal3S(b1-4)[Fuc(a1-3)]Glc", "method_in_brief": "as §1"}, "[37]": {"biological_target": "Gal3S(b1-4)[Fuc(a1-3)]Glc6S", "method_in_brief": "as §1"}, "[38]": {"biological_target": "Gal3S4S(b1-4)GlcNAc", "method_in_brief": "as §1"}, "[39]": {"biological_target": "Gal3S6S(b1-4)GlcNAc", "method_in_brief": "as §1"}, "[40]": {"biological_target": "Gal3S6S(b1-4)GlcNAc6S", "method_in_brief": "as §1"}, "[41]": {"biological_target": "Gal4S(b1-4)GlcNAc", "method_in_brief": "as §1"}, "[42]": {"biological_target": "Gal4S6S(b1-4)GlcNAc", "method_in_brief": "as §1"}, "[43]": {"biological_target": "Gal6S(b1-3)GlcNAc", "method_in_brief": "as §1"}, "[44]": {"biological_target": "Gal6S(b1-3)GlcNAc6S", "method_in_brief": "as §1"}, "[45]": {"biological_target": "Gal6S(b1-4)Glc", "method_in_brief": "as §1"}}, "note": "Some of the results follow.", "data": [{"binder": "B1", "values": [{"measurement": "glycan array binding signal (z-score)", "setting": "[1]", "value": 0.203}, {"measurement": "glycan array binding signal (z-score)", "setting": "[2]", "value": 0.241}, {"measurement": "glycan array binding signal (z-score)", "setting": "[3]", "value": -0.957}, {"measurement": "glycan array binding signal (z-score)", "setting": "[4]", "value": -1.88}, {"measurement": "glycan array binding signal (z-score)", "setting": "[5]", "value": 0.805}, {"measurement": "glycan array binding signal (z-score)", "setting": "[6]", "value": 0.272}, {"measurement": "glycan array binding signal (z-score)", "setting": "[7]", "value": -0.693}, {"measurement": "glycan array binding signal (z-score)", "setting": "[8]", "value": 1.32}, {"measurement": "glycan array binding signal (z-score)", "setting": "[9]", "value": 2.01}, {"measurement": "glycan array binding signal (z-score)", "setting": "[10]", "value": -0.122}, {"measurement": "glycan array binding signal (z-score)", "setting": "[11]", "value": 0.759}, {"measurement": "glycan array binding signal (z-score)", "setting": "[12]", "value": -0.864}, {"measurement": "glycan array binding signal (z-score)", "setting": "[13]", "value": 1.76}, {"measurement": "glycan array binding signal (z-score)", "setting": "[14]", "value": -0.161}, {"measurement": "glycan array binding signal (z-score)", "setting": "[15]", "value": 0.126}, {"measurement": "glycan array binding signal (z-score)", "setting": "[16]", "value": -0.237}, {"measurement": "glycan array binding signal (z-score)", "setting": "[17]", "value": -1.59}, {"measurement": "glycan array binding signal (z-score)", "setting": "[18]", "value": -1.17}, {"measurement": "glycan array binding signal (z-score)", "setting": "[19]", "value": -0.518}, {"measurement": "glycan array binding signal (z-score)", "setting": "[20]", "value": 1.13}, {"measurement": "glycan array binding signal (z-score)", "setting": "[21]", "value": -0.483}, {"measurement": "glycan array binding signal (z-score)", "setting": "[22]", "value": 1.06}, {"measurement": "glycan array binding signal (z-score)", "setting": "[23]", "value": -1.18}, {"measurement": "glycan array binding signal (z-score)", "setting": "[24]", "value": -1.04}, {"measurement": "glycan array binding signal (z-score)", "setting": "[25]", "value": -0.131}, {"measurement": "glycan array binding signal (z-score)", "setting": "[26]", "value": -0.504}, {"measurement": "glycan array binding signal (z-score)", "setting": "[27]", "value": -0.321}, {"measurement": "glycan array binding signal (z-score)", "setting": "[28]", "value": -2}, {"measurement": "glycan array binding signal (z-score)", "setting": "[29]", "value": 0.141}, {"measurement": "glycan array binding signal (z-score)", "setting": "[30]", "value": -0.589}, {"measurement": "glycan array binding signal (z-score)", "setting": "[31]", "value": 0.361}, {"measurement": "glycan array binding signal (z-score)", "setting": "[32]", "value": 0.803}, {"measurement": "glycan array binding signal (z-score)", "setting": "[33]", "value": -0.411}, {"measurement": "glycan array binding signal (z-score)", "setting": "[34]", "value": -0.74}, {"measurement": "glycan array binding signal (z-score)", "setting": "[35]", "value": -0.362}, {"measurement": "glycan array binding signal (z-score)", "setting": "[36]", "value": -0.266}, {"measurement": "glycan array binding signal (z-score)", "setting": "[37]", "value": 1.05}, {"measurement": "glycan array binding signal (z-score)", "setting": "[38]", "value": 0.418}, {"measurement": "glycan array binding signal (z-score)", "setting": "[39]", "value": -0.261}, {"measurement": "glycan array binding signal (z-score)", "setting": "[40]", "value": 0.138}, {"measurement": "glycan array binding signal (z-score)", "setting": "[41]", "value": -0.743}, {"measurement": "glycan array binding signal (z-score)", "setting": "[42]", "value": 0.014}, {"measurement": "glycan array binding signal (z-score)", "setting": "[43]", "value": 0.224}, {"measurement": "glycan array binding signal (z-score)", "setting": "[44]", "value": -1.26}, {"measurement": "glycan array binding signal (z-score)", "setting": "[45]", "value": -0.469}]}]}
